Assay results: patent publication EP4713370A2
Results are given in words; binding and its absence hold for the method and conditions named. Some entries that bind do so weakly or less than the wild type. Blank lines part the entries; values can stand above or below the binder they belong to.

Sequences of proteins named here, by UniProt entry; tags and fusion partners are left off. A change or cut given only in a name is not applied to a line headed by its entry.
UniProt O76036: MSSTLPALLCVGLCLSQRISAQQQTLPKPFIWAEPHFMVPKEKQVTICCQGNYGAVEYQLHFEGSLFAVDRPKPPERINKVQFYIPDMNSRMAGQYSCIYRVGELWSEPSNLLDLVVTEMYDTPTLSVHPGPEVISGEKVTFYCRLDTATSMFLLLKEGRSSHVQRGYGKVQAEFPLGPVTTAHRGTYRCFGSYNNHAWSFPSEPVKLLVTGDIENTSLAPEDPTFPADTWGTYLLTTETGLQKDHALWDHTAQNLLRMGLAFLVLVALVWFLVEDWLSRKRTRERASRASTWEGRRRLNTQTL

Columns and labels:
[1] = target: Recombinant human NKp46, His Tag (human NKp46 ECD antigen, aa. 22-254, his-tagged) (human) (UniProt O76036); assay: ELISA on coated NKp46-His, and BLI with antibody on anti-human IgG Fc probe and 11 nM NKp46-His
[2] = target: Recombinant human NKp46, His Tag (human NKp46 ECD antigen, aa. 22-254, his-tagged) (human) (UniProt O76036); assay: SPR (Biacore 8K+), antibody captured on protein A chip, NKp46-His as analyte, 1:1 fit

B1: h6-1 (antibody, IgG1, V domains shown)
VH: EQQLLESGGGLVQPGGSLRLSCAASGFSFSSSAWICWVRQAPGKCLEWIGCINTVSVNAYYASWAKGRFTISKDSSKNTVYLQMNSLRAEDTAVYFCARNPYNSLRLWGPGTLVTVSS
VL: DVQMTQSPSTLSASVGDRVTITCQASENIYSSLAWYQQKPGKPPKLLMYDVSDLASGVPSRFSGSGSGTEFTLTISSLQPDDFATYFCLGGYPSNNYRMAFGCGTKVEIK
- binding [1]: binds

B3: h3-7 (antibody, IgG1, V domains shown)
VH: EQQLLESGGGLVQPGGSLRLSCAASGFSPSSYYMSWVRQAPGKCLEWIGIIFSGGSTWYASWAKGRFTISKDSSKNTVYLQMNSLRAEDTAVYFCARGDAVGSGYWGLWGPGTLVTVSS
VL: DVQMTQSPSTLSASVGDRVTITCQASQDIYIYLAWYQQKPGKPPKLLMYSASTLASGVPSRFSGSGSGTEFTLTISSLQPDDFATYFCQSYDGTSNTGFGCGTKVEIK
- binding [1]: binds

Second part, the binder after the results:

- binding [2]: binds
B2: IP-46-3 (antibody, human IgG1, kappa, V domains shown)
VH: EVQLQQSGPELVKPGASVKISCKTSGYTFTEYTMHWVKQSHGKSLEWIGGISPNIGGTSYNQKFKGKATLTVDKSSSTAYMELRSLTSEDSAVYYCARRGGSFDYWGQGTTLTVSS
VL: DIVMTQSPATLSVTPGDRVSLSCRASQSISDYLHWYQQKSHESPRLLIKYASQSISGIPSRFSGSGSGSDFTLSINSVEPEDVGVYYCQNGHSFPLTFGAGTKLELKR

- binding [1]: binds
B4: h5-13 (antibody, IgG1, V domains shown)
VH: EQQLLESGGGLVQPGGSLRLSCAASGFSLSSYHMSWVRQAPGKCLEWIGYILANTDSYYANWAKGRFTISKDSSKNTVYLQMNSLRAEDTAVYFCARYDNHDAAYSTLWGPGTLVTVSS
VL: DVQMTQSPSTLSASVGDRVTITCQASQSISTALAWYQQKPGKPPKLLMYKASTLASGVPSRFSGSGSGTEFTLTISSLQPDDFATYFCQQGYSRSNVDNVFGCGTKVEIK
